These are yes or no findings as the source states them, for the method shown. In cells and extracts the contact can be indirect. A yes stands for co-enrichment or nearness to the bait. Other partners may have been found. Where a sequence is shown, tags or fusion partners need not be part of it.

This assay addresses T1, small exported membrane protein 1 (SEMP1) with a C-terminal 3xHA tag (Plasmodium falciparum) (UniProt Q8IC43).
T1 sequence: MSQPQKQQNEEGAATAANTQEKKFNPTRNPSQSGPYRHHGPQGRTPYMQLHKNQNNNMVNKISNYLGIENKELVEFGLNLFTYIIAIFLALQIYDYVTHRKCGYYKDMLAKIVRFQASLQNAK
The assay can be described thus: affinity purification with mass spectrometry; trophozoite stage 3D7 parasites expressing SEMP1-3xHA cross-linked with 1% formaldehyde, saponin released, lysed in 1% SDS and sonicated; α-HA affinity matrix, 4 °C, 16 h; washed with 50 mM Tris-HCl pH 7.4, 150 mM NaCl, 1 mM EDTA, 1% NP40; eluted with HA peptide; LC-MS/MS of TCA precipitated elution or Coomassie-stained gel slices; negative control with excess HA peptide during binding.

B1: Plasmodium exported protein PF3D7_0702500 (protein, UniProt Q8IC42 1-253)
chain: MAYPLLEDDLRSIRVAFGTCPGNSTMQFGERFWQGFFFGVIIFFVLSKYIRSYKKRKGMRILKSSSVTKGRLYRGTVFDEDDNVDGHHKKTKAHGLFEEIEKRNGFDLNDDTTNSNNLGEGTHSAVHNLDGQKESQLYKNNSDGSTENHLSGSNSDGRNSSQHSVGSHSVSSQEHKKEHSTHDLPAGRNYSLGNLSTGTTSQGSTSSRHYSLGGQPSSSGRSFSGSKYNTSNLASSSTTESSVSGLNTNEAHV
Take B1: the binding result was “binds”.

B2: Conserved Plasmodium protein PF3D7_0601900 (protein, UniProt C6KSL9 1-128)
chain: MTDHLLDFNMYGSQLHNLLHNAFSTCLEESERTCKRTYVVAILLAFLVLHALLYMKYKKNFKLSGLFKKSKKRTKMSKHYEDDDDDDDYQPPRHSSLPNERKTSSSSRQAARSHSSSSSVYASANAEN
Take B2: the binding entry is “binds”.

B3: REX1 (protein, UniProt Q8I2G1 1-713)
chain: MADYSSNEEETPKEEKKISKLEDMQSPFDYKRFFRKYTIFAPFILVYFTLMFFVNSTVQNGTMLLNSIKENANSKLPALLWNKIIGKGNDNEVNFEDKKMIEGNKSGNGEEHNKHKRRQVDNQEDDYDVDEYGNPKSGAPYKSEEEHAEQQNYYGEHHGDYEDKNEYHGKSNIENNKDFPEQGQKDEEKEKEAKKKAEEFEKRKQLHEEEKRKARETQQALHKKLQEQLQRLKEQEKKKVEHQKLIHKIKTQGDVDPAVQKVLNKYNQKEKDEEQQILKIRDLQVQLRHIQQRIQSLKSTNNGQPKTKDEYLQLKDLQKEYYDKEQDEQNMIEHLEHLQGEMQYLYEELQIVYDENQAKTAQAKDEQHELKPQAEKDASKLTTTYDQTKEVKPQAEKDASKLTTTYDQTKEVKPQAEKDASKLTTTYDQTKEVKPQAEKDALAKTENQNGELLPQAEKDASKLTTTYDQTKEVKPQAEKDALAKTENQNGELLPQAEKDASKLTTTYDQTKEVKPQAEKDALAKTENQNGELLPQAEKDASKLTTTYDQTKEVKPQAEKDALAKTENQSGELLTQAEKDALAKKESEAPKGSSTSDKNTTENQLNAEAQSEVKPQWQKDYWKSKNESQTETNNTWKKDSWKKKTEEQQNAEAQQEVKSPYEKYSYNKETKPQNDKYTLNKEVKPQNEKYTYNQKVKAENTESEKSLLESSVFN
Take B3: the binding entry is “binds”.

B4: Plasmodium exported protein PF3D7_1353100 (protein, UniProt Q8IDG9 1-285)
chain: MKTYNSLNNIMGFQGEHNSTVPSYNKSSMEKSSNIRNNRGRVYSFHFLVKIFACSLFIWTLYVSHNGNVSTNVDVVNTTQGLSKGRILTQGDHHEETEDVNHKAHHTGERTSYTEVKHRRSSSNSHVESNTFQNKEETEVNADSAEQQNYDKEPSQKGKDVKKMLKKADNFIETKLVSALHPKKNHLLKLAILAFPIFMEHVSNIFKRRGFKYIGSAMHLVCLVFYVYIFKVIVNHLLTNKEDRFAHMESHGKHAFDDNKSKKKPKDNKRYGSGSHDHEEEVVEA
B4: the binding result is on record as “binds”.

B5: MAHRP2 (protein, UniProt Q8IDG8 1-137)
chain: MQPCPYDVYNQINHVGTHWAQHLGEHLHHLAHMHQHTPHVHHHIPHVHTLAHDRPCMPITAFFCRHHEHCSSHLMLIFLLLAFFLVVVYRLYNEVVNSAKTVRIVNITPVNEEHKAEASKEQSKSTSDSSTSTQQTL
As for B5, the binding entry is “binds”.

B6: 60S ribosomal protein L12 (protein, UniProt Q8I3T8 1-165)
chain: MAKKPDPNEIKYVFIRQVGGEVGASSVLSPKLGPLGLSPKKVGDDIAKETQSWKGLKICVKLTIQNRQAKVEVVPTSAALILKELNEAPRDRKKVKNIKHNGNLKLEQVYSIARVMKEKSRAKEFKGTVKEMLGTCNSIGCTVDGKKPTTIQEMIDSGEIDVPLE
As to B6, the binding entry is “binds”.

(Values after article PMC4111544.)
